Laboratory results from patent publication US8129558B2, “Pesticide naphthyloxy substituted phenylamidine derivatives” (Bayer Cropscience AG, priority 2005, dated 2012).
Some entries share one result that the patent states for a list of compounds. For some of these results: At least one compound was matched to its structure with a doubt left.

Experiments:
Botrytis cinerea = test: Efficacy Example E: in vivo protective test on Botrytis cinerea (cucumbers); details: 500 ppm of active ingredient; cucumber plants; evaluated 5-6 days after inoculation
Venturia inaequalis = test: Efficacy Example G: in vivo protective test on Venturia inequaelis (apples); details: 100 ppm of active ingredient, evaluated 10 days after inoculation
Uromyces appendiculatus = test: Efficacy Example F: in vivo protective test on Uromyces appendiculatus (beans); details: 100 ppm of active ingredient, evaluated 10 days after inoculation
[1] = tested on: Puccinia recondita f. Sp. tritici; test: Efficacy Example A: in vivo preventive test on Puccinia recondita f. Sp. tritici (wheat brown rust); details: 1000 ppm of active ingredient, evaluated 10 days after inoculation
Alternaria solani = test: Efficacy Example C: in vivo protective test on Alternaria solani (leaf spot of tomato); details: 500 ppm of active ingredient, evaluated 7 days after inoculation
Podosphaera leucotricha = test: Efficacy Example D: in vivo protective test on Podosphaera leucotricha (apples); details: 100 ppm of active ingredient, evaluated 10 days after inoculation
[2] = tested on: Erysiphe graminis f.sp. hordei; test: Efficacy Example B: in vivo preventive test on Erysiphe gramini (powdery mildew on barley); details: 1000 ppm of active ingredient, evaluated 7 days after inoculation

SMILES	efficacy (Botrytis cinerea)	efficacy (Venturia inaequalis)	efficacy (Uromyces appendiculatus)	further results
Cc1cc(Oc2ccc3ccccc3c2)c(C)cc1N=CN1CCN(C)CC1 [Compound 23]	≥ 70%			
CCN(C)C=Nc1cc(C)c(Oc2ccc3cc(C(=O)c4ccccc4)ccc3c2)cc1C [Compound 14]	≥ 70%			
CCN(C)C=Nc1cc(C)c(Oc2ccc3cc(C#N)ccc3c2)cc1C [Compound 11]		≥ 70%	≥ 70%	
CCN(C)C=Nc1cc(C)c(Oc2ccc3cc(C(O)c4ccccc4)ccc3c2)cc1C (racemic) [Compound 19]	≥ 70%	≥ 70%	≥ 70%	
Cc1cc(Oc2ccc3cc(C#N)ccc3c2)c(C)cc1N=CN(C)C(C)C [Compound 12]		≥ 70%	≥ 70%	
CCCCNc1ccc2ccc(Oc3cc(C)c(N=CN(C)CC)cc3C)cc2c1 [Compound 24]	≥ 70%			
Cc1cc(Oc2ccc3ccccc3c2)c(C)cc1N=CN1CCNCC1 [Compound 22]	≥ 70%			
CCCN(C)C=Nc1cc(C)c(Oc2ccc3cc(C(=NOC)c4ccccc4)ccc3c2)cc1C [Compound 29]	≥ 70%			
CCN(C)C=Nc1cc(C)c(Oc2cccc3ccccc23)cc1C [Compound 32]	≥ 70%	≥ 70%		efficacy [1]: ≥ 70%; efficacy (Alternaria solani): ≥ 70%; efficacy (Podosphaera leucotricha): ≥ 70%; efficacy [2]: ≥ 70%
Cc1cc(Oc2ccc3ccccc3c2)c(C)cc1N=CN1CCCCC1 [Compound 2, Piperidinyl-N-[4-(naphthyl-2-oxy)-2,5-xylyl]form-amidine]	≥ 70%			
CCN(C)C=Nc1cc(C)c(Oc2ccc3ccc(O)cc3c2)cc1C [Compound 5]	≥ 70%			
COc1ccc2ccc(Oc3cc(C)c(N=CN(C)C(C)C)cc3C)cc2c1 [Compound 16]		≥ 70%	≥ 70%	
CON=C(c1ccccc1)c1ccc2cc(Oc3cc(C)c(N=CN(C)C(C)C)cc3C)ccc2c1 [Compound 27]	≥ 70%			
Cc1cc(Oc2ccc3ccccc3c2)c(C)cc1N=CN(C)C(C)C [Compound 4]	≥ 70%	≥ 70%		efficacy [1]: ≥ 70%; efficacy (Podosphaera leucotricha): ≥ 70%; efficacy [2]: ≥ 70%
CCN(C)C=Nc1cc(C)c(Oc2ccc3cc(Br)ccc3c2)cc1C [Compound 8]	≥ 70%	≥ 70%	≥ 70%	
Cc1cc(Oc2ccc3ccc(O)cc3c2)c(C)cc1N=CN(C)C(C)C [Compound 6]	≥ 70%			
CCN(C)C=Nc1cc(C)c(Oc2ccc3cc(C(=NOC)c4ccccc4)ccc3c2)cc1C [Compound 28]	≥ 70%			efficacy (Alternaria solani): ≥ 70%
Cc1cc(Oc2ccc3cc(Br)ccc3c2)c(C)cc1N=CN(C)C(C)C [Compound 7]	≥ 70%			
CCCN(C)C=Nc1cc(C)c(Oc2ccc3ccc(OC)cc3c2)cc1C [Compound 18]		≥ 70%	≥ 70%	
